{"source": "patent US20110117008A1", "about": "“USE OF AVICINS TO DELIVER THERAPEUTIC AND DIAGNOSTIC AGENTS” (Research Development Foundation, priority 2007, published 2011)", "test_system": "full thickness pig skin", "test": "Water soluble anesthetic transport in full thickness pig skin, HPLC quantification", "excerpt": "(§1) HPLC was used to quantify delivered mass, and to calculate permabilities in lag times. Error bar represents mean+/−standard deviation.\nas §1", "note": "Where a name gives a salt, the structure may show the parent alone."}
{"smiles": "CCN(CC)CC(=O)Nc1c(C)cccc1C", "note": "[Lidocaine HCl]", "values": [{"measurement": "Lag time", "setting": "female, pig", "result": "10.12 ± 0.32", "unit": "h"}, {"measurement": "Maximum % Enhancement over control", "setting": "highest enhancement of the anesthetic's permeability with F094", "result": 175, "unit": "%"}]}
